The data set deals with YBX1 (CRC cell lysate pull-down) (UniProt P67809). Kind of data set: pull-down, MS and western blot. Conditions: m5C at C26; protein in an extract; label: 3' biotin.

By UniProt entry, the sequences of proteins in these tests, tags left out. Where a name states a change or a piece, a line headed by the entry shows the natural chain unless it says otherwise.
UniProt P67809: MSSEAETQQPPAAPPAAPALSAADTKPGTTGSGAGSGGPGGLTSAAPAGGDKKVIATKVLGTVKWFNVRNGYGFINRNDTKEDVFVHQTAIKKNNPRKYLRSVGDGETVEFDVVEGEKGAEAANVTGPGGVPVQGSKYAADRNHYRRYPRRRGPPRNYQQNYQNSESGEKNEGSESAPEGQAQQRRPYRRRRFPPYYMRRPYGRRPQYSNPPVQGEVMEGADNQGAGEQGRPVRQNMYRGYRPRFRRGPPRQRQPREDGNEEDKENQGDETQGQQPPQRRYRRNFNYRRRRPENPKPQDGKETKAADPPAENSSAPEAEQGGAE

The exact form of at least one protein or probe is not confirmed. At least one result comes from cells or an extract, where the contact may be indirect.

Experimental findings from article PMC11267267, “Metabolic Recoding of NSUN2‐Mediated m^5C Modification Promotes the Progression of Colorectal Cancer via the NSUN2/YBX1/m^5C‐ENO1 Positive Feedback Loop” (Advanced Science, 2024) are described below.

With “GAUCUCGCCGGCUUUACGUUCACCUCGGUGUCUGCAGCACCCUCCGCUUC [ENO1 [m5C] pull-down probe]”, the binding result is recorded as “binds”.
